{
  "source": "patent US6334944B1",
  "about": "“Process for producing an amino acid-N,N-diacetic acid and its salts” (Showa Denko K.K., priority 1998, dated 2002)",
  "tested_on": "activated sludge",
  "test": "Biodegradability test in compact aeration type activated sludger",
  "conditions": "sample diluted to COD 500 ppm, activated sludge seed, 7 days",
  "data": [
    {"compound": "O=C([O-])CN(CCN(CC(=O)[O-])CC(=O)[O-])CC(=O)[O-].[Fe+3].[NH4+]", "note": "[ammonium ferric ethylenediaminetetraacetate, reference compound]", "values": [
      {"measurement": "Decomposition Rate (%)", "result": 0, "unit": "%"}
    ]},
    {"compound": "calcium disodium glutamic acid-N,N-diacetate [Example 13]", "values": [
      {"measurement": "Decomposition Rate (%)", "result": 100, "unit": "%"}
    ]}
  ]
}
